Results taken from article PMC6281649.
Results are given in words; binding and its absence hold for the method and conditions named. Binding seen in cells or lysates may run through a third protein. Some entries that bind do so weakly or less than the wild type.

The chains behind the UniProt entries cited, without tags or fusion partners. Residues count along the entry.
UniProt P35916, residues 25-1363: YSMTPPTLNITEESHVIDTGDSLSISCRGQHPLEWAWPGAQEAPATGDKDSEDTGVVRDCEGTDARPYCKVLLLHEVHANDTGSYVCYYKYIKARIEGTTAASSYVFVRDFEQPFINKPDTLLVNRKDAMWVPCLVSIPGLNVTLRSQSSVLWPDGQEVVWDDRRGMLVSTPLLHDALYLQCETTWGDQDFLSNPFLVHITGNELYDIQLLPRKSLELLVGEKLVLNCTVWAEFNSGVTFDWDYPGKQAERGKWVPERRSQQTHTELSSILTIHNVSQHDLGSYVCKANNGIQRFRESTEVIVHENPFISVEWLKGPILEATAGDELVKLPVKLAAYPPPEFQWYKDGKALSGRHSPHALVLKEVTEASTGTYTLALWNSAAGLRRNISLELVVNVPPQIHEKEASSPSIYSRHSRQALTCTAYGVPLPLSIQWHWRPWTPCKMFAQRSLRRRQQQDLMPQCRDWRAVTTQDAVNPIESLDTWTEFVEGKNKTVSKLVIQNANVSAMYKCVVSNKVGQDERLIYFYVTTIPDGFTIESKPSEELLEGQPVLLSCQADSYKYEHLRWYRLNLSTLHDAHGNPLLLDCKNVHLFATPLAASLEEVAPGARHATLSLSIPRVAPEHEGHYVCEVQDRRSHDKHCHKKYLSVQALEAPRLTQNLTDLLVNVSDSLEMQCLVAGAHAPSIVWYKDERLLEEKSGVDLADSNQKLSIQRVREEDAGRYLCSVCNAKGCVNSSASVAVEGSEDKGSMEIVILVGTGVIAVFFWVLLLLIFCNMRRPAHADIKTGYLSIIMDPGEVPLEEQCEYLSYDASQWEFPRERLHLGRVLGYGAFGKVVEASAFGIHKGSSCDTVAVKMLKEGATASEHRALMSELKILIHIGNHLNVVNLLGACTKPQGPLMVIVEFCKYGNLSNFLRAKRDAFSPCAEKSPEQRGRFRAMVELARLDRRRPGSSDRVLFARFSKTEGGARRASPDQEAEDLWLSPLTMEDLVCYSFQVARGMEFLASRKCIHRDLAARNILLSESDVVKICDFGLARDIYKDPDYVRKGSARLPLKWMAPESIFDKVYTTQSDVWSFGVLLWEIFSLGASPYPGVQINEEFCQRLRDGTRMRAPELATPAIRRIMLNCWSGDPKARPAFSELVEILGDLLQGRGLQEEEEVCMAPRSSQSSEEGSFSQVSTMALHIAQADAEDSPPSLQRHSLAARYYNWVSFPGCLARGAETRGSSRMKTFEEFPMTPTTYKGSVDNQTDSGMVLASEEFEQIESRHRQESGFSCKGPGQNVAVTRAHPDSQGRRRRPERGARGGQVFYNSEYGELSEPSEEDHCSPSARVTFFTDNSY
UniProt P35968, residues 20-1356: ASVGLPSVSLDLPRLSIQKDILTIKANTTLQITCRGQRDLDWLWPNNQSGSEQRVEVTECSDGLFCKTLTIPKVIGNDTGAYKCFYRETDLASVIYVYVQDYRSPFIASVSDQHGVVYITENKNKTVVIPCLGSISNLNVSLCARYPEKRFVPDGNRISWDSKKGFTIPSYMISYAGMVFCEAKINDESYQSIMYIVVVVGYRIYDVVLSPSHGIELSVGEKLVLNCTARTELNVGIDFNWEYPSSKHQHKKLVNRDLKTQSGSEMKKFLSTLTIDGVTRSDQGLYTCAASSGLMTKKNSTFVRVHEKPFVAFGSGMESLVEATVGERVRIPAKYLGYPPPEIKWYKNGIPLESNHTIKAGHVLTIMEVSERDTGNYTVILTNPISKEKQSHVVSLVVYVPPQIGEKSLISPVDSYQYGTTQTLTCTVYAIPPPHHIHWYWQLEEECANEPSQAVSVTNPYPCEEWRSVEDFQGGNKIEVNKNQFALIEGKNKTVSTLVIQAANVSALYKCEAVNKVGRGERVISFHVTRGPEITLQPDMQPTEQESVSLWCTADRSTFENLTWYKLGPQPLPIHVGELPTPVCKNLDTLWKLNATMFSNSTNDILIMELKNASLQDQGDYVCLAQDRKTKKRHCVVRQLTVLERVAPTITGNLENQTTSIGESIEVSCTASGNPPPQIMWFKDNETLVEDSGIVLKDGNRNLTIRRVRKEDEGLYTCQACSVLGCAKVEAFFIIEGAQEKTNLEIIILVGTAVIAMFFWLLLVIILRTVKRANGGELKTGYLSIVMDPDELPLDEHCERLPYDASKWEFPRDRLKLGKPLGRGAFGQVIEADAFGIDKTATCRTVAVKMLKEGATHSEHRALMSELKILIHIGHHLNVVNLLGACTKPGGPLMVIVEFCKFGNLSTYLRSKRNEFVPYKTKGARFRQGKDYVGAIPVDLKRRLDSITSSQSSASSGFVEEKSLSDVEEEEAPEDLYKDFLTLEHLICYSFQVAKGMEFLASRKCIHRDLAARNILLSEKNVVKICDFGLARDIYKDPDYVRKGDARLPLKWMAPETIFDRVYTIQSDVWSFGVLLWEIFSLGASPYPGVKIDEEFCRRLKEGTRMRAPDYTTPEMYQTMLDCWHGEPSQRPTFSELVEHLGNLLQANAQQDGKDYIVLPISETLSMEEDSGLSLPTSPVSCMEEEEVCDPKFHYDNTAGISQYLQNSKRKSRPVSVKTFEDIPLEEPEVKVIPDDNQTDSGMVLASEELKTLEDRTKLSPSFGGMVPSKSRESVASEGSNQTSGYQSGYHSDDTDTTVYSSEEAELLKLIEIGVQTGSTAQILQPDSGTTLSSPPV

Assays:
[1] = molecular target: T1, urokinase plasminogen activator receptor-associated protein, uPARAP/Endo180 (human (endogenous in primary human LECs)) (UniProt Q9UBG0); assay: proximity ligation; in situ PLA (Duolink) in fixed, permeabilised primary human LECs; basal, 5 and 30 min of VEGF-C (400 ng/ml), or migrating 6 h in a VEGF-C gradient; control siRNA, uPARAP siRNA or uPARAP cDNA; dots per cell
T1 sequence: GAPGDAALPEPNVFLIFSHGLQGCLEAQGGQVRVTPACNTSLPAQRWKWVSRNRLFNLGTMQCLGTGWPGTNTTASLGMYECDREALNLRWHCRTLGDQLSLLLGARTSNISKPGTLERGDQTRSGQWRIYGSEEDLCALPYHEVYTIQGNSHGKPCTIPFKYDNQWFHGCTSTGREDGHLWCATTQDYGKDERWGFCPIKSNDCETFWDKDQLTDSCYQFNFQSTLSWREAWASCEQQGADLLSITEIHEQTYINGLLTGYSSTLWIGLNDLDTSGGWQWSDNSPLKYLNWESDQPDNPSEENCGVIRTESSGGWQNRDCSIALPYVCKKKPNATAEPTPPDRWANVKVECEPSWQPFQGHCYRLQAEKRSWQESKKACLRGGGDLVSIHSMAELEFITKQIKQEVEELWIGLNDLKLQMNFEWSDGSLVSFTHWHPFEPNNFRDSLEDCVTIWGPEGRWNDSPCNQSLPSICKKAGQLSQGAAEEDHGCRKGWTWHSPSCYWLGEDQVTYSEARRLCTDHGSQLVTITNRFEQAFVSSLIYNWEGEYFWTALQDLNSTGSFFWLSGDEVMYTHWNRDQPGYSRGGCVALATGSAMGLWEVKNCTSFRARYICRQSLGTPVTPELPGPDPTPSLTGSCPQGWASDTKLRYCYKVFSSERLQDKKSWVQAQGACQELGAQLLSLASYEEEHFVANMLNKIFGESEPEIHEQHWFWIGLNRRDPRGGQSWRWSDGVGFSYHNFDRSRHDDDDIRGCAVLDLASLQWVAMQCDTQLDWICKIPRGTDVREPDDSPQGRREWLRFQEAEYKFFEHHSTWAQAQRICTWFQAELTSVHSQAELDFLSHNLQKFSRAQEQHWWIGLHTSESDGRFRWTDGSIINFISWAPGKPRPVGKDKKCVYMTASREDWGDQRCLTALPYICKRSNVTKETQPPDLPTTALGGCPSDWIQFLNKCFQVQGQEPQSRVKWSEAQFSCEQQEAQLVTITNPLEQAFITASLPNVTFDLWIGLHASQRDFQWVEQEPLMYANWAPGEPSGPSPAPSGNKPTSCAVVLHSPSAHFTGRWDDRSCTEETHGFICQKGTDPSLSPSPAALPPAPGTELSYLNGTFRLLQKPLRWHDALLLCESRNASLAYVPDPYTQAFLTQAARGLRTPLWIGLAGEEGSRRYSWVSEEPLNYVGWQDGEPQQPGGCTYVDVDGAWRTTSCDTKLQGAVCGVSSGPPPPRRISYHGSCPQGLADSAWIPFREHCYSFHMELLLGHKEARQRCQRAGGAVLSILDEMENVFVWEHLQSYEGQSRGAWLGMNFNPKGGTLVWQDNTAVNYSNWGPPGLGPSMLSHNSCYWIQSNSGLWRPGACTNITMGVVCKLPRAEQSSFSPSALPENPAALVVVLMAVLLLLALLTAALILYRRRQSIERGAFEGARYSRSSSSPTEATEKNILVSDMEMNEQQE

[2] = molecular target: T1, urokinase plasminogen activator receptor-associated protein, uPARAP/Endo180 (human (endogenous in primary human LECs)); assay: co-IP; immunoprecipitation of uPARAP (mAb 2H9F12, overnight at 4 degrees, Dynabeads Protein G) from LEC lysate in Cell Lysis Buffer at the indicated times of VEGF-C stimulation; blots for VEGFR-2 and VEGFR-3; IgG as negative control

Substance	binding [1]	binding [2]
VEGFR-3 (from UniProt P35916 25-1363) (receptor)	binds	binds
VEGFR-2 (from UniProt P35968 20-1356) (receptor)	binds	binds
